Results published in publication PMC7024262.
These are yes or no findings as the source states them, for the method shown.

Molecular target: recombinant Phl p 12.0101 (Phleum pratense (Timothy grass)) (UniProt P35079)
Experiment: SEC; size exclusion chromatography as the last purification step, in 50 mM Tris-HCl, 150 mM NaCl, pH 7.4; both purified

B1: recombinant Phl p 12.0101 (protein, UniProt P35079 1-131)
chain: MSWQTYVDEHLMCEIEGHHLASAAILGHDGTVWAQSADFPQFKPEEITGIMKDFDEPGHLAPTGMFVAGAKYMVIQGEPGRVIRGKKGAGGITIKKTGQALVVGIYDEPMTPGQCNMVVERLGDYLVEQGM
binding: no binding
